± gives the uncertainty stated by the source. The uncertainty is large for many entries.
Assay: self-splicing fitness, log relative to wild type (ln ratio); higher = more splicing; Tetrahymena group I intron in knt gene, E. coli kanamycin selection, DiMSum; sequences stand for … in CUCUCU…GGAGGGAAAAGUUAUCAGGCAUGCACCUGGUAGCUAGUCUUUAAACCAAUAGAUUGCAUCGGUUUAAAAGGCAAGACCGUCAAAUUGCGGGAAAGGGGUCAACAGCCGUUCAGUACCAAGUCUCAGGGGAAACUUUGAGAUGGCCUUGCAAAGGGUAUGGUAAUAAGCUGACGGACAUGGUCCUAACCACGCAGCCAAGUCCUAAGUCAACAGAUCUUCUGUUGAUAUGGAUGCAGUUCACAGACUAAAUGUCGGUCGGGGAAGAUGUAUUCUUCUCAUAAGAUAUAGUCGGACCUCUCCUUAAUGGGAGCUAGCGGAUGAAGUGAUGCAACACUGGAGCCGCUGGGAACUAAUUUGUAUGCGAAAGUAUAUUGAUUAGUUUUGGAGUACUCGUGGUCG
In short: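 Pooled colonies went to amplicon sequencing on an Illumina HiSeq 2500 after six replicate transformations. The plates were LB agar with 100 μg/mL carbenicillin, 50 μM IPTG and 0.2% rhamnose, with or without 25 μg/mL kanamycin, incubated overnight at 37°C or 30°C. The E. coli BL21(DE3) library had all eight P1ex-region intron nucleotides randomised, the intron placed in the knt kanamycin-resistance gene on pET-22b(+). DiMSum fitness is the error-weighted combination of replicate fold changes, kanamycin against none, normalised to wild type.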

CUGUAGCAAUAUUACGUAAU
self-splicing fitness (ln) (30 °C): -3.88 ± 0.3
self-splicing fitness (ln) (37 °C): -3.29 ± 0.37

AGCCAGCAAUAUUACGCCGA
self-splicing fitness (ln) (30 °C): -2.61 ± 0.51

GUUGAGCAAUAUUACGCCAA
self-splicing fitness (ln) (37 °C): -3.08 ± 1

AUUGAGCAAUAUUACGAACC
self-splicing fitness (ln) (30 °C): -1.27 ± 0.91

GGAGAGCAAUAUUACGGCAC
self-splicing fitness (ln) (37 °C): -0.557 ± 0.51

GUUUAGCAAUAUUACGCUUA
self-splicing fitness (ln) (30 °C): -1.24 ± 0.15
self-splicing fitness (ln) (37 °C): -0.129 ± 0.12

UAUAAGCAAUAUUACGUCCC
self-splicing fitness (ln) (30 °C): -2.57 ± 0.78
self-splicing fitness (ln) (37 °C): -0.835 ± 0.77

UCAUAGCAAUAUUACGAUCC
self-splicing fitness (ln) (30 °C): -3.58 ± 1

GGAUAGCAAUAUUACGUGGC
self-splicing fitness (ln) (37 °C): -2.32 ± 0.54

CCGUAGCAAUAUUACGGGCA
self-splicing fitness (ln) (30 °C): -3.76 ± 0.42
self-splicing fitness (ln) (37 °C): -2.14 ± 0.23

ACAGAGCAAUAUUACGAAGA
self-splicing fitness (ln) (30 °C): -3.48 ± 0.53
self-splicing fitness (ln) (37 °C): -0.891 ± 0.84

AUACAGCAAUAUUACGAUGG
self-splicing fitness (ln) (30 °C): -3.04 ± 0.18
self-splicing fitness (ln) (37 °C): -2.35 ± 0.23

GUUGAGCAAUAUUACGAAAA
self-splicing fitness (ln) (37 °C): -0.778 ± 1.4

UCGAAGCAAUAUUACGAUCC
self-splicing fitness (ln) (30 °C): -3.63 ± 1
self-splicing fitness (ln) (37 °C): -1.39 ± 1.2

UGAUAGCAAUAUUACGCGUG
self-splicing fitness (ln) (30 °C): -1.18 ± 0.072
self-splicing fitness (ln) (37 °C): -0.0417 ± 0.078

AAGGAGCAAUAUUACGUGAC
self-splicing fitness (ln) (30 °C): -2.46 ± 0.55

AAAGAGCAAUAUUACGUUUU
self-splicing fitness (ln) (30 °C): -2.46 ± 0.11
self-splicing fitness (ln) (37 °C): -1.91 ± 0.12

AGUGAGCAAUAUUACGAGAC
self-splicing fitness (ln) (30 °C): -4.63 ± 1

AAUAAGCAAUAUUACGCCAC
self-splicing fitness (ln) (30 °C): -3.1 ± 0.8
self-splicing fitness (ln) (37 °C): -3.26 ± 0.6

UUUUAGCAAUAUUACGAGGG
self-splicing fitness (ln) (37 °C): -3.15 ± 0.52

CCCAAGCAAUAUUACGACCC
self-splicing fitness (ln) (30 °C): -3.66 ± 1
self-splicing fitness (ln) (37 °C): -2.8 ± 0.53

CUCAAGCAAUAUUACGCCCG
self-splicing fitness (ln) (30 °C): -0.954 ± 0.17
self-splicing fitness (ln) (37 °C): -2.11 ± 0.21

GGCGAGCAAUAUUACGACGC
self-splicing fitness (ln) (37 °C): -1.45 ± 0.5

CAUCAGCAAUAUUACGAUUC
self-splicing fitness (ln) (30 °C): -1.62 ± 0.071
self-splicing fitness (ln) (37 °C): -0.269 ± 0.073

CUCGAGCAAUAUUACGACCG
self-splicing fitness (ln) (30 °C): -2.29 ± 0.57
self-splicing fitness (ln) (37 °C): 0.0117 ± 1.2

GCAGAGCAAUAUUACGGCAA
self-splicing fitness (ln) (30 °C): -3.59 ± 0.46
self-splicing fitness (ln) (37 °C): -3.6 ± 0.42

AGCGAGCAAUAUUACGCGUC
self-splicing fitness (ln) (37 °C): -2.64 ± 0.62

GAUUAGCAAUAUUACGAGAA
self-splicing fitness (ln) (30 °C): -3.39 ± 1

GGAGAGCAAUAUUACGGUUA
self-splicing fitness (ln) (37 °C): -2.61 ± 0.55

UAAUAGCAAUAUUACGGCUU
self-splicing fitness (ln) (30 °C): -0.901 ± 0.096
self-splicing fitness (ln) (37 °C): -0.115 ± 0.13

UCUCAGCAAUAUUACGGCCU
self-splicing fitness (ln) (30 °C): -2.44 ± 0.78

AUAUAGCAAUAUUACGGGGC
self-splicing fitness (ln) (30 °C): -3.4 ± 0.43
self-splicing fitness (ln) (37 °C): -2.48 ± 0.32

UGCGAGCAAUAUUACGUAGU
self-splicing fitness (ln) (30 °C): -5.47 ± 0.71

CCAGAGCAAUAUUACGUGCC
self-splicing fitness (ln) (30 °C): -3.42 ± 0.38
self-splicing fitness (ln) (37 °C): -2.76 ± 0.32

AUCAAGCAAUAUUACGCCGC
self-splicing fitness (ln) (37 °C): -2.88 ± 0.75

GAUGAGCAAUAUUACGCACA
self-splicing fitness (ln) (30 °C): -2.13 ± 0.51
self-splicing fitness (ln) (37 °C): -1.48 ± 0.65

CGCGAGCAAUAUUACGUUGC
self-splicing fitness (ln) (37 °C): -3.22 ± 0.52

UUGGAGCAAUAUUACGAGGC
self-splicing fitness (ln) (37 °C): -1.6 ± 0.53

GACUAGCAAUAUUACGGACC
self-splicing fitness (ln) (30 °C): -1.77 ± 0.38
self-splicing fitness (ln) (37 °C): -0.714 ± 0.39

CCGGAGCAAUAUUACGCAAA
self-splicing fitness (ln) (30 °C): -2.73 ± 0.62

GUCGAGCAAUAUUACGCGCG
self-splicing fitness (ln) (30 °C): -2.33 ± 0.78
self-splicing fitness (ln) (37 °C): -1.38 ± 0.73

UCAAAGCAAUAUUACGAGGG
self-splicing fitness (ln) (30 °C): -2.11 ± 0.12
self-splicing fitness (ln) (37 °C): -1.03 ± 0.12

CUCGAGCAAUAUUACGAUUC
self-splicing fitness (ln) (37 °C): -3.03 ± 0.61

CAACAGCAAUAUUACGUAGC
self-splicing fitness (ln) (30 °C): -4.19 ± 0.12
self-splicing fitness (ln) (37 °C): -2.49 ± 0.12

UGAGAGCAAUAUUACGAAGC
self-splicing fitness (ln) (30 °C): -1.53 ± 0.66
self-splicing fitness (ln) (37 °C): -2.44 ± 0.55

AGUGAGCAAUAUUACGGGAA
self-splicing fitness (ln) (37 °C): -2.47 ± 0.55

GGUCAGCAAUAUUACGCGCU
self-splicing fitness (ln) (30 °C): -3.98 ± 0.74

UUUGAGCAAUAUUACGAACC
self-splicing fitness (ln) (37 °C): -2.9 ± 1.1

GACAAGCAAUAUUACGAUGU
self-splicing fitness (ln) (30 °C): -1.66 ± 0.067
self-splicing fitness (ln) (37 °C): -1.65 ± 0.11

CCUUAGCAAUAUUACGACCA
self-splicing fitness (ln) (37 °C): -2.35 ± 0.77

CAUGAGCAAUAUUACGUCAC
self-splicing fitness (ln) (37 °C): -3.55 ± 0.52

UGCCAGCAAUAUUACGAGUG
self-splicing fitness (ln) (30 °C): -1.32 ± 0.064
self-splicing fitness (ln) (37 °C): -0.537 ± 0.079

GUGGAGCAAUAUUACGAGUU
self-splicing fitness (ln) (30 °C): -5.15 ± 0.72

GUUGAGCAAUAUUACGCUCA
self-splicing fitness (ln) (30 °C): -2.94 ± 1.1

UCUGAGCAAUAUUACGAAAC
self-splicing fitness (ln) (37 °C): -2.57 ± 1.1

AAGGAGCAAUAUUACGUAAA
self-splicing fitness (ln) (30 °C): -2.81 ± 0.32
self-splicing fitness (ln) (37 °C): -0.663 ± 0.24

AAUGAGCAAUAUUACGUCCC
self-splicing fitness (ln) (30 °C): -1.69 ± 0.52
self-splicing fitness (ln) (37 °C): -1.69 ± 1.2

UUCUAGCAAUAUUACGCUGG
self-splicing fitness (ln) (30 °C): -4.38 ± 0.46
self-splicing fitness (ln) (37 °C): -3.66 ± 0.73

CCAGAGCAAUAUUACGUACA
self-splicing fitness (ln) (30 °C): -4.71 ± 0.58

GACGAGCAAUAUUACGUCGC
self-splicing fitness (ln) (30 °C): -3.25 ± 0.47
self-splicing fitness (ln) (37 °C): -0.634 ± 0.35

AGUUAGCAAUAUUACGAAUU
self-splicing fitness (ln) (30 °C): -1.62 ± 0.11
self-splicing fitness (ln) (37 °C): -0.649 ± 0.12

UUUCAGCAAUAUUACGCCGA
self-splicing fitness (ln) (30 °C): -2.61 ± 0.51

UAGGAGCAAUAUUACGUAUC
self-splicing fitness (ln) (37 °C): -3.33 ± 0.52

GGCUAGCAAUAUUACGCUCC
self-splicing fitness (ln) (37 °C): -1.75 ± 0.81

GUCGAGCAAUAUUACGAACU
self-splicing fitness (ln) (30 °C): -1.01 ± 0.58
self-splicing fitness (ln) (37 °C): -1.31 ± 0.5

CUUUAGCAAUAUUACGAUUA
self-splicing fitness (ln) (30 °C): -3.5 ± 1

GGAGAGCAAUAUUACGGACC
self-splicing fitness (ln) (30 °C): -2.09 ± 1.4

AGUUAGCAAUAUUACGCUCU
self-splicing fitness (ln) (37 °C): -1.02 ± 0.71

UUUGAGCAAUAUUACGCGUA
self-splicing fitness (ln) (30 °C): -2.14 ± 0.57

UUUGAGCAAUAUUACGAGAC
self-splicing fitness (ln) (30 °C): -3.97 ± 1
self-splicing fitness (ln) (37 °C): -2.42 ± 0.54

CUGAAGCAAUAUUACGGGAA
self-splicing fitness (ln) (37 °C): -3.37 ± 0.6

GCUGAGCAAUAUUACGGGGU
self-splicing fitness (ln) (30 °C): -4.24 ± 0.51

CUGAAGCAAUAUUACGGGCC
self-splicing fitness (ln) (37 °C): -3.1 ± 0.6

CUUCAGCAAUAUUACGCUUC
self-splicing fitness (ln) (30 °C): -3.62 ± 0.52
self-splicing fitness (ln) (37 °C): -2.73 ± 0.61

AUGGAGCAAUAUUACGGCGA
self-splicing fitness (ln) (30 °C): -3.21 ± 0.74

UCGGAGCAAUAUUACGUAAC
self-splicing fitness (ln) (37 °C): -1.9 ± 0.57

AUUAAGCAAUAUUACGGCCG
self-splicing fitness (ln) (30 °C): -0.768 ± 0.12
self-splicing fitness (ln) (37 °C): 0.0891 ± 0.15

CUCUAGCAAUAUUACGUGCA
self-splicing fitness (ln) (37 °C): -3.44 ± 0.52

AGCAAGCAAUAUUACGUCUC
self-splicing fitness (ln) (37 °C): -2.57 ± 0.66

CGAGAGCAAUAUUACGCCCA
self-splicing fitness (ln) (30 °C): -1.56 ± 1.2

UCGGAGCAAUAUUACGGACU
self-splicing fitness (ln) (30 °C): -4.29 ± 1
self-splicing fitness (ln) (37 °C): -1.98 ± 1.1

ACGGAGCAAUAUUACGAAUC
self-splicing fitness (ln) (30 °C): -3.65 ± 0.55
self-splicing fitness (ln) (37 °C): -2.64 ± 0.53

GAAAAGCAAUAUUACGUACU
self-splicing fitness (ln) (30 °C): -0.864 ± 0.069
self-splicing fitness (ln) (37 °C): -0.0522 ± 0.1

GGCUAGCAAUAUUACGCCAC
self-splicing fitness (ln) (37 °C): -0.00393 ± 0.58

UGAGAGCAAUAUUACGAUAU
self-splicing fitness (ln) (30 °C): -2.85 ± 0.62
self-splicing fitness (ln) (37 °C): -2.8 ± 0.44

UACAAGCAAUAUUACGCCGC
self-splicing fitness (ln) (30 °C): -3.68 ± 0.62

UUUAAGCAAUAUUACGCUAC
self-splicing fitness (ln) (37 °C): -3.41 ± 0.53

UUCUAGCAAUAUUACGUCAG
self-splicing fitness (ln) (30 °C): -3.16 ± 0.37
self-splicing fitness (ln) (37 °C): -1.75 ± 0.26

AUUAAGCAAUAUUACGACCC
self-splicing fitness (ln) (37 °C): 0.725 ± 0.57

AUGGAGCAAUAUUACGGUGA
self-splicing fitness (ln) (37 °C): -2.86 ± 0.53

CGGGAGCAAUAUUACGCCCG
self-splicing fitness (ln) (37 °C): -0.722 ± 0.54

UUUUAGCAAUAUUACGUUGA
self-splicing fitness (ln) (30 °C): -3.16 ± 0.76

AUAGAGCAAUAUUACGAGGC
self-splicing fitness (ln) (30 °C): -2.44 ± 1.1
self-splicing fitness (ln) (37 °C): -1.74 ± 0.7

AUGGAGCAAUAUUACGUAGC
self-splicing fitness (ln) (30 °C): -4.44 ± 1

From the supplement of paper PMC7877785
